Source: patent US20140227708A1
No constants are given. Whether binding was seen depends on the method and setting. In cells and extracts the contact can be indirect. Some results given as binding are weak or reduced against the parent protein; the word gives no strength. Tags and fused reporters may be left off the sequences shown.

Legend:
[1] = biological target: myc-Ago2 (Homo sapiens (Human)) (UniProt Q9UKV8); experiment: anti-myc co-immunoprecipitation from myc-Ago2 stable cell line, anti-FLAG Western blot (FIG. 6)
[2] = biological target: endogenous Argonaute 2 (Ago2) (human) (UniProt Q9UKV8); experiment: FLAG co-immunoprecipitation, anti-Ago2 Western blot (FIG. 12)
[3] = biological target: endogenous Argonaute 2 (Ago2) (human) (UniProt Q9UKV8); experiment: anti-FLAG co-immunoprecipitation from HEK293T lysate, Western blot (FIG. 3)
[4] = biological target: myc-Ago2 (Homo sapiens (Human)) (UniProt Q9UKV8); experiment: anti-myc co-immunoprecipitation, anti-FLAG Western blot (FIG. 6)
[5] = biological target: endogenous Argonaute 2 (Ago2) (human) (UniProt Q9UKV8); experiment: FLAG-agarose co-immunoprecipitation, Western blot (FIG. 3)
[6] = biological target: endogenous Argonaute 2 (Ago2) (human) (UniProt Q9UKV8); experiment: FLAG co-immunoprecipitation from HEK293T lysate, Western blot (FIG. 4, lane 5)
[7] = biological target: endogenous Argonaute 1 (Ago1) (human) (UniProt Q9UL18); experiment: as above
[8] = biological target: endogenous Argonaute 2 (Ago2) (human) (UniProt Q9UKV8); experiment: co-immunoprecipitation, Western blot (FIG. 15)
[9] = biological target: endogenous Argonaute 2 (Ago2) (human) (UniProt Q9UKV8); experiment: FLAG co-immunoprecipitation from HEK293T cells, Western blot (FIG. 4)
[10] = biological target: endogenous Argonaute 1 (Ago1) (human) (UniProt Q9UL18); experiment: as above
[11] = biological target: endogenous Argonaute 2 (Ago2) (human) (UniProt Q9UKV8); experiment: FLAG-agarose co-immunoprecipitation, Western blot (FIG. 4)
[12] = biological target: endogenous Argonaute 1 (Ago1) (human) (UniProt Q9UL18); experiment: as above

Measured: binding

B1: FLAG-HA-dominant negative TNRC6A (protein, not shown: small tags and cut ends)
chain: MDADSASSSESERNITIMASGNTGGEKDGLRNSTGLGSQNKFVVGSSSNNVGHGSSTGPWGFSHGAIISTCQVSVDAPESKSESSNNRMNAWGTVSSSSNGGLNPSTLNSASNHGAWPVLENNGLALKGPVGSGSSGINIQCSTIGQMPNNQSINSKVSGGSTHGTWGSLQETCESEVSGTQKVSFSGQPQNITTEMTGPNNTTNFMTSSLPNSGSVQNNELPSSNTGAWRVSTMNHPQMQAPSGMNGTSLSHLSNGESKSGGSYGTTWGAYGSNYSGDKCSGPNGQANGDTVNATLMQPGVNGPMGTNFQVNTNKGGGVWESGAANSQSTSWGSGNGANSGGSRRGWGTPAQNTGTNLPSVEWNKLPSNQHSNDSANGNGKTFTNGWKSTEEEDQGSATSQTNEQSSVWAKTGGTVESDGSTESTGRLEEKGTGESQSRDRRKIDQHTLLQSIVNRTDLDPRVLSNSGWGQTPIKQNTAWDTETSPRGERKTDNGTEAWGSSATQTFNSGACIDKTSPNGNDTSSVSGWGDPKPALRWGDSKGSNCQGGWEDDSAATGMVKSNQWGNCKEEKAAWNDSQKNKQGWGDGQKSSQGWSVSASDNWGETSRNNHWGEANKKSSSGGSDSDRSVSGWNELGKTSSFTWGNNINPNNSSGWDESSKPTPSQGWGDPPKSNQSLGWGDSSKPVSSPDWNKQQDIVGSWGIPPATGKPPGTGWLGGPIPAPAKEEEPTGWEEPSPESIRRKMEIDDGTSAWGDPSKYNYKNVNMWNKNVPNGNSRSDQQAQVHQLLTPASAISNKEASSGSGWGEPWGEPSTPATTVDNGTSAWGKPIDSGPSWGEPIAAASSTSTWGSSSVGPQALSKSGPKSMQDGWCGDDMPLPGNRPTGWEEEEDVEIGMWNSNSSQELNSSLNWPPYTKKMSSKGLSGKKRRRERGMMKGGNKQEEAWINPFVKQFSNISFSRDSPEENVQSNKMDLSGGMLQDKRMEIDKHSLNIGDYNRTVGKGPGSRPQISKESSMERNPYFDKDGIVADESQNMQFMSSQSMKLPPSNSALPNQALGSIAGLGMQNLNSVRQNGNPSMFGVGNTAAQPRGMQQPPAQPLSSSQPNLRAQVPPPLLSPQVPVSLLKYAPNNGGLNPLFGPQQVAMLNQLSQLNQLSQISQLQRLLAQQQRAQSQRSVPSGNRPQQDQQGRPLSVQQQMMQQSRQLDPNLLV
binds: [1] | [2] | [3] | [4] | [5]

B2: FLAG-dominant-negative TNRC6A (protein, not shown: small tags and cut ends)
chain: MDADSASSSESERNITIMASGNTGGEKDGLRNSTGLGSQNKFVVGSSSNNVGHGSSTGPWGFSHGAIISTCQVSVDAPESKSESSNNRMNAWGTVSSSSNGGLNPSTLNSASNHGAWPVLENNGLALKGPVGSGSSGINIQCSTIGQMPNNQSINSKVSGGSTHGTWGSLQETCESEVSGTQKVSFSGQPQNITTEMTGPNNTTNFMTSSLPNSGSVQNNELPSSNTGAWRVSTMNHPQMQAPSGMNGTSLSHLSNGESKSGGSYGTTWGAYGSNYSGDKCSGPNGQANGDTVNATLMQPGVNGPMGTNFQVNTNKGGGVWESGAANSQSTSWGSGNGANSGGSRRGWGTPAQNTGTNLPSVEWNKLPSNQHSNDSANGNGKTFTNGWKSTEEEDQGSATSQTNEQSSVWAKTGGTVESDGSTESTGRLEEKGTGESQSRDRRKIDQHTLLQSIVNRTDLDPRVLSNSGWGQTPIKQNTAWDTETSPRGERKTDNGTEAWGSSATQTFNSGACIDKTSPNGNDTSSVSGWGDPKPALRWGDSKGSNCQGGWEDDSAATGMVKSNQWGNCKEEKAAWNDSQKNKQGWGDGQKSSQGWSVSASDNWGETSRNNHWGEANKKSSSGGSDSDRSVSGWNELGKTSSFTWGNNINPNNSSGWDESSKPTPSQGWGDPPKSNQSLGWGDSSKPVSSPDWNKQQDIVGSWGIPPATGKPPGTGWLGGPIPAPAKEEEPTGWEEPSPESIRRKMEIDDGTSAWGDPSKYNYKNVNMWNKNVPNGNSRSDQQAQVHQLLTPASAISNKEASSGSGWGEPWGEPSTPATTVDNGTSAWGKPIDSGPSWGEPIAAASSTSTWGSSSVGPQALSKSGPKSMQDGWCGDDMPLPGNRPTGWEEEEDVEIGMWNSNSSQELNSSLNWPPYTKKMSSKGLSGKKRRRERGMMKGGNKQEEAWINPFVKQFSNISFSRDSPEENVQSNKMDLSGGMLQDKRMEIDKHSLNIGDYNRTVGKGPGSRPQISKESSMERNPYFDKDGIVADESQNMQFMSSQSMKLPPSNSALPNQALGSIAGLGMQNLNSVRQNGNPSMFGVGNTAAQPRGMQQPPAQPLSSSQPNLRAQVPPPLLSPQVPVSLLKYAPNNGGLNPLFGPQQVAMLNQLSQLNQLSQISQLQRLLAQQQRAQSQRSVPSGNRPQQDQQGRPLSVQQQMMQQSRQLDPNLLV
binds: [6] | [7] | [8] | [9] | [10] | [11] | [12]
